Experimental data reported in publication PMC3068154.
No constants are given. Whether binding was seen depends on the method and setting. Binding seen in cells or lysates may run through a third protein. Some binding calls cover weakened binding; strength is not graded here.

Biological target: T1, Beclin1 (mouse (endogenous in heart)), O88597
T1 chain: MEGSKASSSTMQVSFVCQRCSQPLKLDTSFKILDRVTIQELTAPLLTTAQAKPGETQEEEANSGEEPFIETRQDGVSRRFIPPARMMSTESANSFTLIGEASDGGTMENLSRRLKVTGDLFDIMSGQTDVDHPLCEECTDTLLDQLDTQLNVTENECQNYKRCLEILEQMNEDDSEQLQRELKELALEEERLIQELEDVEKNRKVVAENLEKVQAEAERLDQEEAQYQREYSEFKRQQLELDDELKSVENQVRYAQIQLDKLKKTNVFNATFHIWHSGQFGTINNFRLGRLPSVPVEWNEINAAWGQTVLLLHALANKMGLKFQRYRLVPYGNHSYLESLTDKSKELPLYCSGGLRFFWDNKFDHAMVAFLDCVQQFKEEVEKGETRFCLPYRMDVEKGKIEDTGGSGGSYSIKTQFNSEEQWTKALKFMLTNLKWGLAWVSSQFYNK
Assay: co-IP; anti-Beclin1 immunoprecipitates (250 µg protein, antibody 2.5 µg/ml, protein G agarose beads, 2 h at 4°C, washed five times with lysis buffer), Bcl-2 detected by immunoblot; cardiac mitochondria from WT and p53(-/-) mice treated with saline or DOX (20 mg/kg, three days)
Settings: remark: other sources report otherwise

B1: Bcl-2, P10417 1-236 (protein)
chain: MAQAGRTGYDNREIVMKYIHYKLSQRGYEWDAGDADAAPLGAAPTPGIFSFQPESNPMPAVHRDMAARTSPLRPLVATAGPALSPVPPVVHLTLRRAGDDFSRRYRRDFAEMSSQLHLTPFTARGRFATVVEELFRDGVNWGRIVAFFEFGGVMCVESVNREMSPLVDNIALWMTEYLNRHLHTWIQDNGGWDAFVELYGPSMRPLFDFSWLSLKTLLSLALVGACITLGAYLGHK
In the case of B1, the binding is reported as “binds”.
